Counter-ions that a name gives are not always drawn. The list shows a part of the results. Most values come without repeats; read them as rough.

This experiment concerns Reh. The experiment is described as follows: S-phase gammaH2AX median, Z-score vs plate median (drug alone); higher = more S-phase DNA damage. As to conditions: MK1775 concentration 0 nM; 10 µM; 4 h.
As to `NCCCCC(=O)O` [5-Aminovaleric acid hydrochloride], the “S-phase gammaH2AX median (Z-score)” value is -0.0699.
With `OCCN1CCN(CCCN2c3ccccc3Sc3ccc(C(F)(F)F)cc32)CC1` [Fluphenazine dihydrochloride] the figure was -0.236.
As for `CCCn1c(=O)c2c(ncn2C)n(CCC)c1=O` [1,3-Dipropyl-7-methylxanthine], the “S-phase gammaH2AX median (Z-score)” value is -0.0945.
Then `C[C@H]1C[C@H]2[C@@H]3CCC4=CC(=O)C=C[C@]4(C)[C@@]3(F)[C@@H](O)C[C@]2(C)[C@@]1(O)C(=O)CO` [Betamethasone], with -0.0563; and `CC1=Nc2ccc(Cl)cc2S(=O)(=O)N1` [Diazoxide], with 0.0472; and `Cc1ccc(Cl)c(Nc2ccccc2C(=O)O)c1Cl` [Meclofenamic acid sodium], with -0.551.
Consider `COC(=O)C1=C(C)NC(C)=C(C(=O)OCCCN2CCC(c3ccccc3)(c3ccccc3)CC2)[C@H]1c1cccc([N+](=O)[O-])c1` [S-(+)-Niguldipine hydrochloride], for which the “S-phase gammaH2AX median (Z-score)” value is -0.00889.
Then `CN(C)CCOc1ccc(/C(=C(/CCCl)c2ccccc2)c2ccccc2)cc1` [Toremifene Citrate (Fareston, Acapodene)], with 0.000387.
Then `CCn1nc(C(=O)O)c(=O)c2cc3c(cc21)OCO3` [Cinoxacin], with 0.0291; and `CNC(=O)c1cc(COc2nnc(Nc3ccc(Cl)cc3)c3ccoc23)ccn1` [Telatinib (BAY 57-9352)], with -0.0808.
Then `CN1CCN(c2nc3cc(C(F)(F)F)ccc3n3cccc23)CC1`, with 0.0136; and `COc1cc2nccc(Oc3ccc(NC(=O)C4(C(=O)Nc5ccc(F)cc5)CC4)cc3)c2cc1OC` [XL-184 free base (Cabozantinib)], with -0.0862; and `C[C@@H]1C[C@H]2[C@@H]3CCC4=CC(=O)C=C[C@]4(C)[C@@]3(F)[C@@H](O)C[C@]2(C)[C@@]1(O)C(=O)CO` [Dexamethasone], with -0.0476.
For `N=C(N)SCCc1c[nH]cn1` [Imetit dihydrobromide], the “S-phase gammaH2AX median (Z-score)” value turned out to be 0.0882.
For `Cc1cnc(NC(=O)C2=C(O)c3ccccc3S(=O)(=O)N2C)s1` [Meloxicam sodium], the “S-phase gammaH2AX median (Z-score)” value is -0.0639.
With `O=C(O)CCCc1ccccc1` [4-Phenylbutyrate], the “S-phase gammaH2AX median (Z-score)” value came out at 0.053.
With `COc1cc(NS(C)(=O)=O)ccc1Nc1c2ccccc2nc2ccccc12` [Amsacrine hydrochloride] the figure was 10.8.
Take `FC(F)c1nc2ccccc2n1-c1nc(N2CCOCC2)nc(N2CCOCC2)n1`: the “S-phase gammaH2AX median (Z-score)” value is -0.105.
For `CN(C)c1ccc(/C=C2/C(=O)Nc3ccccc32)cc1`, the “S-phase gammaH2AX median (Z-score)” value is 0.24.
`CN1CCN(CCOc2cc(OC3CCOCC3)c3c(Nc4c(Cl)ccc5c4OCO5)ncnc3c2)CC1` [Saracatinib (AZD0530)]: the “S-phase gammaH2AX median (Z-score)” value was determined as 0.0599.
For `Nc1ccc(S(=O)(=O)Nc2ccnn2-c2ccccc2)cc1` [Sulfaphenazole], the “S-phase gammaH2AX median (Z-score)” value worked out at 0.1.
Consider `CC(C)(C)[C@]1(O)CCN2C[C@H]3c4ccccc4CCc4cccc(c43)[C@@H]2C1` [(+)-Butaclamol hydrochloride], for which the “S-phase gammaH2AX median (Z-score)” value was 0.854.
Then `Nc1nc2[nH]c(=O)cnc2c(=O)[nH]1` [Isoxanthopterin], with -0.236; and `Nc1ncnc2c1nc(Sc1ccc(Cl)cc1)n2C1OC2COP(=O)(O)O[C@@H]2[C@@H]1O` (stereo partly specified) [8-(4-Chlorophenylthio)-cAMP sodium], with -0.0155; and `O=C(O)C1=CCCNC1` [Guvacine hydrochloride], with 0.302.
With `COc1ccccc1N1CCN(CCCCNS(=O)(=O)c2cccc3c(N(C)C)cccc23)CC1` [Cortexolone maleate] the figure was 0.0868.
With `NCCNC(=O)c1ncsc1-c1cccc(F)c1` [Ro 41-1049 hydrochloride] the figure was -0.327.
On to `CCn1ccnc1CC1COc2ccccc2O1` (stereo unspecified) [Imiloxan hydrochloride], for which the “S-phase gammaH2AX median (Z-score)” value amounted to 0.107.
With `O=C1CC2(CCCC2)CC(=O)N1CCCCN1CCN(c2ncccn2)CC1` [Buspirone hydrochloride] the figure was -0.00194; with `O=C(NOC[C@H](O)CO)c1ccc(F)c(F)c1Nc1ccc(I)cc1F`, 0.0445.
With `Cc1cc(C)c(/C=C2\C(=O)Nc3ccccc32)[nH]1` the figure was -0.16.
Then `O=C(Nc1ncc([N+](=O)[O-])s1)c1ccc([N+](=O)[O-])c(Cl)c1`, with 0.13.
On to `N[C@H](C(=O)O)c1cc(O)cc(O)c1` [(S)-3,5-Dihydroxyphenylglycine], for which the “S-phase gammaH2AX median (Z-score)” value is -0.00945.
With `Cc1cccc(C#Cc2ccccc2)n1` [6-Methyl-2-(phenylethynyl)pyridine hydrochloride] the figure was 0.166; with `C=CCN1CCc2c(cc(O)c(O)c2Br)[C@@H](c2ccccc2)C1` [R(+)-6-Bromo-APB hydrobromide], 0.0563; with `CN(C)c1nc(N(C)C)nc(N(C)C)n1` [Altretamine], 0.0641.
With `CN(C)c1nc(N(C)C)nc(N(C)C)n1` [Altretamine (Hexalen)] the figure was 0.13; with `Nc1nc2c(nc(Br)n2C2OC3COP(=O)(O)O[C@@H]3C2O)c(=O)[nH]1` (stereo partly specified) [8-Bromo-cGMP sodium], -0.0194; with `CC(=O)O[C@]1(C(C)=O)CC[C@H]2[C@@H]3C[C@H](C)C4=CC(=O)CC[C@]4(C)[C@H]3CC[C@@]21C` [Medroxyprogesterone acetate], -0.00193.
Regarding `COc1ccccc1OCC(O)CN1CCN(CC(=O)Nc2c(C)cccc2C)CC1` (stereo unspecified) [Ranolazine dihydrochloride], the “S-phase gammaH2AX median (Z-score)” value was -0.0733.
Take `COc1ccccc1OCC(O)CN1CCN(CC(=O)Nc2c(C)cccc2C)CC1` (stereo unspecified) [Ranolazine (Ranexa)]: the “S-phase gammaH2AX median (Z-score)” value is -0.0104.
Then `O=[N+]([O-])c1cccc2cn[nH]c12` [7-Nitroindazole], with 0; and `CC(C)[C@@H]1NC(=O)[C@H](CCCCN)NC(=O)[C@@H](Cc2c[nH]c3ccccc23)NC(=O)[C@H](Cc2ccc(O)cc2)NC(=O)[C@H](C)N(C)C(=O)[C@H](Cc2ccccc2)NC1=O` [Seglitide], with 0.147; and `COc1cc([C@@H]2c3cc4c(cc3[C@@H](O[C@@H]3O[C@@H]5CO[C@@H](C)O[C@H]5[C@H](O)[C@H]3O)[C@H]3COC(=O)[C@H]23)OCO4)cc(OC)c1O` [Etoposide], with 11.7.
With `CCCNCC(O)COc1ccccc1C(=O)CCc1ccccc1` (stereo unspecified) [Propafenone hydrochloride] the figure was -0.0426.
Then `CCCCCCCCCCCCCCCCCC(=O)OC(CC(=O)O)C[N+](C)(C)C` (racemic) [DL-Stearoylcarnitine chloride], with -0.214.

(Values after the supplement of paper PMC5355238.)
